At least one compound was matched to its structure with a doubt left.
Biological target: xanthine oxidase (Bos taurus, UniProt P80457)
Conditions: for ability to inhibit XO at a concentration of 20 μM: compared with allopurinol (FIG. 2); for influence of pre-incubation with XO on XO inhibition: pre-incubation with XO 0 to 5 min at 25° C., then 50 μM xanthine
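Also: xanthine oxidase activity read as the initial rate of uric acid production, with water serving as the negative control.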

Sequences of proteins named here, by UniProt entry; tags and fusion partners are left off.
UniProt P80457, whole entry: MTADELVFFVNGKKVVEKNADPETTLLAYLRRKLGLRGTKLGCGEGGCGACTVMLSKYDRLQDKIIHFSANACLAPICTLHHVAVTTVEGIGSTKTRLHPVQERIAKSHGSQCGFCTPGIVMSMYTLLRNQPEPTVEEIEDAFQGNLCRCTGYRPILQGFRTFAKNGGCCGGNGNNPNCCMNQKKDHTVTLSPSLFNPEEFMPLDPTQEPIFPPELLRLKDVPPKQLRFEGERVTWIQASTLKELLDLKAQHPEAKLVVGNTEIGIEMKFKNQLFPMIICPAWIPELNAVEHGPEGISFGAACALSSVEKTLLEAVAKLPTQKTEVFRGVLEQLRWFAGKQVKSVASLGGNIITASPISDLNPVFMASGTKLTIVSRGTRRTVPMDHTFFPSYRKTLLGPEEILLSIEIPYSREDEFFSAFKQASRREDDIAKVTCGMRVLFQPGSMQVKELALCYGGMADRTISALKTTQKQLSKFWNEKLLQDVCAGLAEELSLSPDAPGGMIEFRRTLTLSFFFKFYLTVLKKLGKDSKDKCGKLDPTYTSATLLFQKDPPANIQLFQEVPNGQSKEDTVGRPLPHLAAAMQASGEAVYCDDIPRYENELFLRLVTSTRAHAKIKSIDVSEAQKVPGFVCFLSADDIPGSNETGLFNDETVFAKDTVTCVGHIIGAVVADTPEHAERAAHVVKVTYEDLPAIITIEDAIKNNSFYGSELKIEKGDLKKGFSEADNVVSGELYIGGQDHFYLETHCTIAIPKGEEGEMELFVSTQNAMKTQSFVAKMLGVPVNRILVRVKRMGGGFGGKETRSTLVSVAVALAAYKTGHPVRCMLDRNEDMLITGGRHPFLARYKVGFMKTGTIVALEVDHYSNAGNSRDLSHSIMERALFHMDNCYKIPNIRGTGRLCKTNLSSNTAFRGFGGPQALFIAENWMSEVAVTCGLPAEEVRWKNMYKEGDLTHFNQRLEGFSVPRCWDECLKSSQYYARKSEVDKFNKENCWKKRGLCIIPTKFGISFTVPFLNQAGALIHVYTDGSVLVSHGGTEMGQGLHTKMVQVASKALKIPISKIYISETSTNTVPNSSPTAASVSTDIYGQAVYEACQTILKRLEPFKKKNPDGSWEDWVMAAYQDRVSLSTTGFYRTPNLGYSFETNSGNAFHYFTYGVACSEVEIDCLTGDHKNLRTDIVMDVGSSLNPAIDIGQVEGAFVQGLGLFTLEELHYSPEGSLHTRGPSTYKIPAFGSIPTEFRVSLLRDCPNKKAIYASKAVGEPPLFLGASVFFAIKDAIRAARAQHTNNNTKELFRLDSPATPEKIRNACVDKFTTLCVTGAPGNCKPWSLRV

Row | SMILES | ability to inhibit XO at a concentration of 20 μM | influence of pre-incubation with XO on XO inhibition
1 | CCN(CC)C(=O)/C(C#N)=C/c1cc(O)c(O)c([N+](=O)[O-])c1 [Entacapone, reference compound] | did not show any inhibitory effect on XO | did not show any inhibitory effect
2 | OCCc1ccc(O)c(O)c1 [hydroxytyrosol, 3,4-dihydroxyphenyl ethanol, reference compound] | no effect on XO | did not show any inhibitory effect

Source: US9580379B2, “Xanthine oxidase inhibitors and methods of use” (Baylor College of Medicine, priority 2014, dated 2017)
